Results as given in publication PMC6499106, “The CXCR4-LASP1-eIF4F Axis Promotes Translation of Oncogenic Proteins in Triple-Negative Breast Cancer Cells” (Frontiers in Oncology, 2019).
No constants are given. Whether binding was seen depends on the method and setting. For some assays here: In cells and extracts the contact can be indirect. Some binding calls cover weakened binding; strength is not graded here. For some assays here: Sequences can lack the tags named with a protein.

By UniProt entry, the sequences of proteins in these tests, tags left out.
UniProt P60842: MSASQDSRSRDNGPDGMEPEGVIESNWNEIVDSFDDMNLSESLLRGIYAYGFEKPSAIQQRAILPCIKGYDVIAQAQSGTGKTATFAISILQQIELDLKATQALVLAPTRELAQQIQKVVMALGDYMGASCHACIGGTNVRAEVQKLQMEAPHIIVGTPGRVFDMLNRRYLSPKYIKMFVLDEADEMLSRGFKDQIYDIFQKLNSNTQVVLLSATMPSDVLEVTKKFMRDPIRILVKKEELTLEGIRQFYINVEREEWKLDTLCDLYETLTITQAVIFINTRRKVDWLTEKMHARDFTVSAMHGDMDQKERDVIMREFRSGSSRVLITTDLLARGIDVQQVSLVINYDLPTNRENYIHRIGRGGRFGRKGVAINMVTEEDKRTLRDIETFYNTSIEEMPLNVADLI
UniProt P23588: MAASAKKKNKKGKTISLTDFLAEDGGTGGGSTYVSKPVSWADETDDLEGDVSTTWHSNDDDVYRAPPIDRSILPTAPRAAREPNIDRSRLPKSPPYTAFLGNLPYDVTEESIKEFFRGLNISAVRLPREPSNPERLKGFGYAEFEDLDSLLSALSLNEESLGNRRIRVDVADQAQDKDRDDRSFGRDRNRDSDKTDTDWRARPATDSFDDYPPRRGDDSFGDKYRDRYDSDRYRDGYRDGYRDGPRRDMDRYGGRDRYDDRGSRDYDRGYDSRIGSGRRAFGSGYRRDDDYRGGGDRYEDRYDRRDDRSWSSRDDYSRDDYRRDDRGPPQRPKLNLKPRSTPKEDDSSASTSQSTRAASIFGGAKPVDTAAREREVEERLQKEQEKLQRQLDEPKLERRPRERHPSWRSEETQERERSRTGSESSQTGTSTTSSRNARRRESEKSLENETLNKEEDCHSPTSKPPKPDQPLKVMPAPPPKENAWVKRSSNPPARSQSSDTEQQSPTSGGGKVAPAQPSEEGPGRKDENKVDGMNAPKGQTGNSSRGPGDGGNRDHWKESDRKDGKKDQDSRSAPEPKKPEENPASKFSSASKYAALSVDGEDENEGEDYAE

Key:
[1] = molecular target: T1, GST-LASP1 (human) (UniProt Q14847); assay: pull-down; GST-LASP1 eluted from the beads, mixed in solution in equimolar amounts with purified eIF4A or eIF4B in 1 mL Co-IP buffer overnight at 4°C, complexes re-captured with glutathione agarose beads for 1 h at 4°C; Western blot; both purified
T1 sequence: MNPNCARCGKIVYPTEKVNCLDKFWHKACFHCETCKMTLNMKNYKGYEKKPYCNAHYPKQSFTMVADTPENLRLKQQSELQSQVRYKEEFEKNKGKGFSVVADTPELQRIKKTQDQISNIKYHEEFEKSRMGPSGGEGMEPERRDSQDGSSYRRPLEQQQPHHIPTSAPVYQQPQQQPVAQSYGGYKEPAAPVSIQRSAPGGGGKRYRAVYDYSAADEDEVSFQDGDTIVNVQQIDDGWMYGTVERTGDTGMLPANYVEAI

[2] = molecular target: T1, GST-LASP1 (human); assay: pull-down; 1.5 nmoles GST-LASP1 on glutathione beads in 1 mL Co-IP buffer with increasing amounts of purified recombinant eIF4A or eIF4B, overnight at 4°C; Western blot; both purified
[3] = molecular target: T1, GST-LASP1 (human); assay: pull-down; 1.5 nmoles GST-LASP1 on glutathione agarose beads with 1 mg 231S lysate in Co-IP buffer, 2 h at 4°C; for eIF4A with or without exogenous 2 mM ATP and 3 mM MgCl2; Western blot; only the target purified
[4] = molecular target: Eukaryotic initiation factor 4A (eIF4A1), endogenous in 231S cells (human (endogenous in 231S, MDA-MB-231)) (UniProt P60842); assay: co-IP; endogenous proteins from 1 mg 231S lysate, cells serum-starved 1 h and stimulated with 10-20 nM CXCL12 over time; IP with eIF4A1, eIF4B or LASP1 antibody on protein G magnetic beads, 2 h at 4°C; Co-IP buffer (50 mM Tris pH 8.0, 100 mM NaCl, 0.1% IGEPAL CA-630, 0.1% deoxycholate, 5 mM EDTA); Western blot
[5] = molecular target: Eukaryotic initiation factor 4B (eIF4B), endogenous in 231S cells (human (endogenous in 231S, MDA-MB-231)) (UniProt P23588); assay: as above

## Purified recombinant eIF4A (from UniProt P60842 1-406)
[1]
  binding: binds
[2]
  binding: binds

## Eukaryotic initiation factor 4A (eIF4A1), endogenous in 231S cells (from UniProt P60842 1-406)
[3]
  binding: binds

B1: LIM and SH3 Protein 1 (LASP1), endogenous in 231S cells (natural protein, human (endogenous in 231S, MDA-MB-231), UniProt Q14847 1-261, looked up)
chain: MNPNCARCGKIVYPTEKVNCLDKFWHKACFHCETCKMTLNMKNYKGYEKKPYCNAHYPKQSFTMVADTPENLRLKQQSELQSQVRYKEEFEKNKGKGFSVVADTPELQRIKKTQDQISNIKYHEEFEKSRMGPSGGEGMEPERRDSQDGSSYRRPLEQQQPHHIPTSAPVYQQPQQQPVAQSYGGYKEPAAPVSIQRSAPGGGGKRYRAVYDYSAADEDEVSFQDGDTIVNVQQIDDGWMYGTVERTGDTGMLPANYVEAI
notes: LIM and SH3 protein 1 (LASP1), endogenous in human 231S breast cancer cells; source: endogenous, 231S (MDA-MB-231 sorted for high CXCR4) cells, in lysate or in situ
[4]
  binding: binds
[5]
  binding: binds
